{
  "sequences": {"note": "By UniProt entry, the sequences of proteins in these tests, tags left out.", "UniProt O70546": "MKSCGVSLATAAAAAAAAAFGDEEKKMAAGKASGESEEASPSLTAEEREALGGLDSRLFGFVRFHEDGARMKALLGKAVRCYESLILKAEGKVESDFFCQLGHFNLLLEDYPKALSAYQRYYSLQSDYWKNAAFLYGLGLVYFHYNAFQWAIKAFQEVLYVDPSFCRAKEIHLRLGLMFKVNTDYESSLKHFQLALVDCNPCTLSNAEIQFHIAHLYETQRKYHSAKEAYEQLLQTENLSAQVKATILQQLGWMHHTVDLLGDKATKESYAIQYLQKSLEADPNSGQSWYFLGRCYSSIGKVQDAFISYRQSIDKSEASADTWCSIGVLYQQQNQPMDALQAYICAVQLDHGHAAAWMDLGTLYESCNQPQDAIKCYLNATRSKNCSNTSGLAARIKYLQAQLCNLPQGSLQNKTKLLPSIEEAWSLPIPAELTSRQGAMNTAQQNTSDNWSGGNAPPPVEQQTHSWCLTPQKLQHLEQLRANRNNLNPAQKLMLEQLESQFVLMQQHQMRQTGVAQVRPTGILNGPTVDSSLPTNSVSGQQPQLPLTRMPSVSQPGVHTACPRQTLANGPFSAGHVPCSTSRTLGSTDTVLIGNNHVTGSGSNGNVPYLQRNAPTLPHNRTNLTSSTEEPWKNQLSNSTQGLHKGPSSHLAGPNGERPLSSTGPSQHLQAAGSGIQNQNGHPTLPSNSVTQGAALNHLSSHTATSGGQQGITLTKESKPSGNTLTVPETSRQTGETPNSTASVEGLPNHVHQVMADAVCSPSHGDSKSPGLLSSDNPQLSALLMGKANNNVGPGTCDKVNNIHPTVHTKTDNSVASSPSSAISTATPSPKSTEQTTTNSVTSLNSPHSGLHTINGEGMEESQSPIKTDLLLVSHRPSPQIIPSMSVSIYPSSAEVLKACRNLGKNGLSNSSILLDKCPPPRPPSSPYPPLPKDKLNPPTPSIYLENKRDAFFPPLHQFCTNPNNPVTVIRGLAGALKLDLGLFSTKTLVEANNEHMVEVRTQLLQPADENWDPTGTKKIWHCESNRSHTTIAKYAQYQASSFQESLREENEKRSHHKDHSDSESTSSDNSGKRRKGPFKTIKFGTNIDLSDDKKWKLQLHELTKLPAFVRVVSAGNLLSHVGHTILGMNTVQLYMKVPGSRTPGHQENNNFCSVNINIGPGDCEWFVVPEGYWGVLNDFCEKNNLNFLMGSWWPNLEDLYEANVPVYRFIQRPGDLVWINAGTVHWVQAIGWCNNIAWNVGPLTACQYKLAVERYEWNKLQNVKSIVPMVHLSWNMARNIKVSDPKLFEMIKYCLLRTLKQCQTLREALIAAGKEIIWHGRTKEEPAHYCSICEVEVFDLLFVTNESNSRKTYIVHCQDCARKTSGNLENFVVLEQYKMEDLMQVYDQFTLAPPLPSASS", "UniProt P22361": "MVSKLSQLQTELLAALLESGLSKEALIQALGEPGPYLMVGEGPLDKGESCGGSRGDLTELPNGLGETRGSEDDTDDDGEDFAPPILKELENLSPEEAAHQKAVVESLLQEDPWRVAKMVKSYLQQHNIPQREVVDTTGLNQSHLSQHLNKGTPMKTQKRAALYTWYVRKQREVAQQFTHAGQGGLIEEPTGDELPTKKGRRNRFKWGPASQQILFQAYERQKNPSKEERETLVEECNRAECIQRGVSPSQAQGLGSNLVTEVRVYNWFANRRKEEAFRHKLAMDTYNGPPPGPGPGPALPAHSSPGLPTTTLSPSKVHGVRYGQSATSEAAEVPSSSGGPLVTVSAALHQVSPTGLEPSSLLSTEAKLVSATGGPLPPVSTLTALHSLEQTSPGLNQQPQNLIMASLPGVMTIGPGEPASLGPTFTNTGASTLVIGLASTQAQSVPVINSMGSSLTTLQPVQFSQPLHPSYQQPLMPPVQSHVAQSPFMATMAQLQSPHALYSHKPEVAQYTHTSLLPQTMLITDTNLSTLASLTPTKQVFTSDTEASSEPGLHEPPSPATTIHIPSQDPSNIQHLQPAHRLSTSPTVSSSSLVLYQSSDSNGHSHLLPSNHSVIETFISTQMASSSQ"},
  "source": "paper PMC7196917",
  "target": "Lysine-specific demethylase 6A (KDM6A) (mouse (endogenous in 266-6)) (UniProt O70546)",
  "assay": "co-IP; endogenous proteins; nuclear extract of 266-6 mouse acinar cells equilibrated to 150 mM NaCl, 4 mg extract incubated overnight with 2 ug anti-KDM6A, anti-HNF1A or normal rabbit IgG, Dynabeads Protein G, washes with 10 mM Tris-HCl pH 8, 150 mM NaCl, 0.1% NP-40, 1 mM EDTA; Western blot",
  "note": "These are yes or no findings as the source states them, for the method shown. Binding seen in cells or lysates may run through a third protein. Some entries that bind do so weakly or less than the wild type.",
  "data": [
    {"substance": "HNF1A (from UniProt P22361 1-628)", "values": [
      {"measurement": "binding", "value": "binds"}
    ]}
  ]
}
